Source: PMC6720858
No constants are given. Whether binding was seen depends on the method and setting. In cells and extracts the contact can be indirect. Some entries that bind do so weakly or less than the wild type.

Sequences of proteins named here, by UniProt entry; tags and fusion partners are left off. A change or cut given only in a name is not applied to a line headed by its entry. A line that says so, or that is headed by a name, gives the form on record, which may keep a tag or linker.
AnkB p.Q879R-GFP (Q01484, form named): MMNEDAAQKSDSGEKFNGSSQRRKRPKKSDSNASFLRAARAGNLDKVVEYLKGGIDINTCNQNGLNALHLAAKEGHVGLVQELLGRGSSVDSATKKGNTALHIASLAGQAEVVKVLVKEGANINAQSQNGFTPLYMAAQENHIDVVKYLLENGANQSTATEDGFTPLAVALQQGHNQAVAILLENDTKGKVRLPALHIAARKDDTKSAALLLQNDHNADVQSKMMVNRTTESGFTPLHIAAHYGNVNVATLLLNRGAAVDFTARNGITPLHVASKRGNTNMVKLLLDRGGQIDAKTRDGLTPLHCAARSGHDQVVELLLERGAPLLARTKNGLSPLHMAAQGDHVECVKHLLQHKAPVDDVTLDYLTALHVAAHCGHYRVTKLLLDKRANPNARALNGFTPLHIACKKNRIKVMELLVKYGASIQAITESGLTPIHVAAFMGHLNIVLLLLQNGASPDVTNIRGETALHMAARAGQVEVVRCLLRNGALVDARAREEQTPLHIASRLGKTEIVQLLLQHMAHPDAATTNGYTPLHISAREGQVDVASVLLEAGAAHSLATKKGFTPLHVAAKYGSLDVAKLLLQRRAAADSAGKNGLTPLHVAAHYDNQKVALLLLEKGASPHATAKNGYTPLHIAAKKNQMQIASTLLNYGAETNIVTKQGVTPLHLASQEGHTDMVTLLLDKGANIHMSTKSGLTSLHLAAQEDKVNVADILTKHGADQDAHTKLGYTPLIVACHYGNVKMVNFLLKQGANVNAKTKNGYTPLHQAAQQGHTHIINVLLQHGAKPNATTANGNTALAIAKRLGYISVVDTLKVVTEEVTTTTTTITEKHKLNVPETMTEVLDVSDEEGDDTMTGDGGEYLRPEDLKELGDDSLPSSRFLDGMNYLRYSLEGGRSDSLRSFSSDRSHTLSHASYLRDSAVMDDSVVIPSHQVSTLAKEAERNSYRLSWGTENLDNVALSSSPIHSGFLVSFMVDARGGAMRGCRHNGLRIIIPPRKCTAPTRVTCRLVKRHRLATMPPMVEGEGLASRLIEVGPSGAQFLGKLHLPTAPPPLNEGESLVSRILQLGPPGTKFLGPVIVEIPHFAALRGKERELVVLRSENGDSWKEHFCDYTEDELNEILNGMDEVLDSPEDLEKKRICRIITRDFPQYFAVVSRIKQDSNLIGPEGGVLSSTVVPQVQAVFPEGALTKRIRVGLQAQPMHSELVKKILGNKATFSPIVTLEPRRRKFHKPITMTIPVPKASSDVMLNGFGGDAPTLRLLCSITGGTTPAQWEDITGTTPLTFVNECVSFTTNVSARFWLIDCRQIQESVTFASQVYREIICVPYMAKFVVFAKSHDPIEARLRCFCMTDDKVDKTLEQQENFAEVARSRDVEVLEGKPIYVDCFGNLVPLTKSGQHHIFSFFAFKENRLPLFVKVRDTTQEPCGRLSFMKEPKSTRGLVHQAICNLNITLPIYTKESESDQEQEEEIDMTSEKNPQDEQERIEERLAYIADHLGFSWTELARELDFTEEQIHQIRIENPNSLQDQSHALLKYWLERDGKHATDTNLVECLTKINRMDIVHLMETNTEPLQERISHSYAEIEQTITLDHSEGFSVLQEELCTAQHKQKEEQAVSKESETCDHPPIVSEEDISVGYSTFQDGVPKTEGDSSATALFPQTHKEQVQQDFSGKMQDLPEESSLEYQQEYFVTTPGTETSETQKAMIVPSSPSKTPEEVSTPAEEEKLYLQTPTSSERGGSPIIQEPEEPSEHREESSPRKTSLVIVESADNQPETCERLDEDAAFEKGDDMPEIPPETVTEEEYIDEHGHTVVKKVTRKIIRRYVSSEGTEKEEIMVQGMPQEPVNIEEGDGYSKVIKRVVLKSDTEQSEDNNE
AnkB p.E1458G-GFP (Q01484, form named): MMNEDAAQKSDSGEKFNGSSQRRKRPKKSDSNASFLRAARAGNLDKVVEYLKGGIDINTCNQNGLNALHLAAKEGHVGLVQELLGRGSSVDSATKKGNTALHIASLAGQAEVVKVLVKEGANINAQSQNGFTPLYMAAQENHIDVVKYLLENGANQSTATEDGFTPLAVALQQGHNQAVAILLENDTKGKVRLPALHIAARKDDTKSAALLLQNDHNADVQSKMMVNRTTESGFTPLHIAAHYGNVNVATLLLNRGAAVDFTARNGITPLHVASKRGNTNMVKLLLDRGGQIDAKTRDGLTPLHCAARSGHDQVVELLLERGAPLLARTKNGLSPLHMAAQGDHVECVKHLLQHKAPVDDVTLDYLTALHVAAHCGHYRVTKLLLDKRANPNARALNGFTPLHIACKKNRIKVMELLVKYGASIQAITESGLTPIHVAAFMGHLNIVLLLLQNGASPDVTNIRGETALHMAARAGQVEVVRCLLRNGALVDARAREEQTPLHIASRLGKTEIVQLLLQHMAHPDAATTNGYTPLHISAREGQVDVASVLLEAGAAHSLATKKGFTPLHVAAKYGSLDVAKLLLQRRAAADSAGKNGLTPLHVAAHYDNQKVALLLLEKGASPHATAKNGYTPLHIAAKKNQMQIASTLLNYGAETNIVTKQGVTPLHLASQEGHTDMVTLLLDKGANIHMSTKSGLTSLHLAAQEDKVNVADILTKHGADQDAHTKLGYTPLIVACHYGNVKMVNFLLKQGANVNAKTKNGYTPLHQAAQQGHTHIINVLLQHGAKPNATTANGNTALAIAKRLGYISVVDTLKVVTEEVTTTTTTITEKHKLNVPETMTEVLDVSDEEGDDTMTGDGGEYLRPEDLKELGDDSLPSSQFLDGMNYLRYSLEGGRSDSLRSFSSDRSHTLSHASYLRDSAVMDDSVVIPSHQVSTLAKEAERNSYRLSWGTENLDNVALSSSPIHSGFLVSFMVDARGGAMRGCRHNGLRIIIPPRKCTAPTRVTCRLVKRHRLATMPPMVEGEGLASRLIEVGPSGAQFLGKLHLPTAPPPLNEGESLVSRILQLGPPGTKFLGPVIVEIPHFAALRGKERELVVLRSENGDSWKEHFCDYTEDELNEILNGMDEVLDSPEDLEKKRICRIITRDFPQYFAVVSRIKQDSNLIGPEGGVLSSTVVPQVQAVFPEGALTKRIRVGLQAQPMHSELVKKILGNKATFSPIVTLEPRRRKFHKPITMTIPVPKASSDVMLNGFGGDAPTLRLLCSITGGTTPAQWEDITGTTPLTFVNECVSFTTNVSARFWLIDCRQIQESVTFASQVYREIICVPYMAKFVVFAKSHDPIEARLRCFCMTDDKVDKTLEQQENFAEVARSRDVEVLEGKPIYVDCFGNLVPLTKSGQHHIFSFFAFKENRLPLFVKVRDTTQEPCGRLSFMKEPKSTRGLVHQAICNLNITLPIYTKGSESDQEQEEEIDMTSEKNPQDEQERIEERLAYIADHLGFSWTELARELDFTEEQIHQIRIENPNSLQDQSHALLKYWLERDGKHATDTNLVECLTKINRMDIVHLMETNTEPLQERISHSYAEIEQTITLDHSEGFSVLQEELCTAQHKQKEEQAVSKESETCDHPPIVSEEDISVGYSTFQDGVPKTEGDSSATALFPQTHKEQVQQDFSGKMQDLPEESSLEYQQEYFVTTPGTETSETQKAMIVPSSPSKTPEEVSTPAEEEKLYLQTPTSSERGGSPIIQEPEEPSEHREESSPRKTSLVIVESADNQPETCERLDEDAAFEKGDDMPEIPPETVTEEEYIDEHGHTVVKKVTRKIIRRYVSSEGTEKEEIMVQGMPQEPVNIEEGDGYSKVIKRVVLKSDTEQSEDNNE
UniProt P54282: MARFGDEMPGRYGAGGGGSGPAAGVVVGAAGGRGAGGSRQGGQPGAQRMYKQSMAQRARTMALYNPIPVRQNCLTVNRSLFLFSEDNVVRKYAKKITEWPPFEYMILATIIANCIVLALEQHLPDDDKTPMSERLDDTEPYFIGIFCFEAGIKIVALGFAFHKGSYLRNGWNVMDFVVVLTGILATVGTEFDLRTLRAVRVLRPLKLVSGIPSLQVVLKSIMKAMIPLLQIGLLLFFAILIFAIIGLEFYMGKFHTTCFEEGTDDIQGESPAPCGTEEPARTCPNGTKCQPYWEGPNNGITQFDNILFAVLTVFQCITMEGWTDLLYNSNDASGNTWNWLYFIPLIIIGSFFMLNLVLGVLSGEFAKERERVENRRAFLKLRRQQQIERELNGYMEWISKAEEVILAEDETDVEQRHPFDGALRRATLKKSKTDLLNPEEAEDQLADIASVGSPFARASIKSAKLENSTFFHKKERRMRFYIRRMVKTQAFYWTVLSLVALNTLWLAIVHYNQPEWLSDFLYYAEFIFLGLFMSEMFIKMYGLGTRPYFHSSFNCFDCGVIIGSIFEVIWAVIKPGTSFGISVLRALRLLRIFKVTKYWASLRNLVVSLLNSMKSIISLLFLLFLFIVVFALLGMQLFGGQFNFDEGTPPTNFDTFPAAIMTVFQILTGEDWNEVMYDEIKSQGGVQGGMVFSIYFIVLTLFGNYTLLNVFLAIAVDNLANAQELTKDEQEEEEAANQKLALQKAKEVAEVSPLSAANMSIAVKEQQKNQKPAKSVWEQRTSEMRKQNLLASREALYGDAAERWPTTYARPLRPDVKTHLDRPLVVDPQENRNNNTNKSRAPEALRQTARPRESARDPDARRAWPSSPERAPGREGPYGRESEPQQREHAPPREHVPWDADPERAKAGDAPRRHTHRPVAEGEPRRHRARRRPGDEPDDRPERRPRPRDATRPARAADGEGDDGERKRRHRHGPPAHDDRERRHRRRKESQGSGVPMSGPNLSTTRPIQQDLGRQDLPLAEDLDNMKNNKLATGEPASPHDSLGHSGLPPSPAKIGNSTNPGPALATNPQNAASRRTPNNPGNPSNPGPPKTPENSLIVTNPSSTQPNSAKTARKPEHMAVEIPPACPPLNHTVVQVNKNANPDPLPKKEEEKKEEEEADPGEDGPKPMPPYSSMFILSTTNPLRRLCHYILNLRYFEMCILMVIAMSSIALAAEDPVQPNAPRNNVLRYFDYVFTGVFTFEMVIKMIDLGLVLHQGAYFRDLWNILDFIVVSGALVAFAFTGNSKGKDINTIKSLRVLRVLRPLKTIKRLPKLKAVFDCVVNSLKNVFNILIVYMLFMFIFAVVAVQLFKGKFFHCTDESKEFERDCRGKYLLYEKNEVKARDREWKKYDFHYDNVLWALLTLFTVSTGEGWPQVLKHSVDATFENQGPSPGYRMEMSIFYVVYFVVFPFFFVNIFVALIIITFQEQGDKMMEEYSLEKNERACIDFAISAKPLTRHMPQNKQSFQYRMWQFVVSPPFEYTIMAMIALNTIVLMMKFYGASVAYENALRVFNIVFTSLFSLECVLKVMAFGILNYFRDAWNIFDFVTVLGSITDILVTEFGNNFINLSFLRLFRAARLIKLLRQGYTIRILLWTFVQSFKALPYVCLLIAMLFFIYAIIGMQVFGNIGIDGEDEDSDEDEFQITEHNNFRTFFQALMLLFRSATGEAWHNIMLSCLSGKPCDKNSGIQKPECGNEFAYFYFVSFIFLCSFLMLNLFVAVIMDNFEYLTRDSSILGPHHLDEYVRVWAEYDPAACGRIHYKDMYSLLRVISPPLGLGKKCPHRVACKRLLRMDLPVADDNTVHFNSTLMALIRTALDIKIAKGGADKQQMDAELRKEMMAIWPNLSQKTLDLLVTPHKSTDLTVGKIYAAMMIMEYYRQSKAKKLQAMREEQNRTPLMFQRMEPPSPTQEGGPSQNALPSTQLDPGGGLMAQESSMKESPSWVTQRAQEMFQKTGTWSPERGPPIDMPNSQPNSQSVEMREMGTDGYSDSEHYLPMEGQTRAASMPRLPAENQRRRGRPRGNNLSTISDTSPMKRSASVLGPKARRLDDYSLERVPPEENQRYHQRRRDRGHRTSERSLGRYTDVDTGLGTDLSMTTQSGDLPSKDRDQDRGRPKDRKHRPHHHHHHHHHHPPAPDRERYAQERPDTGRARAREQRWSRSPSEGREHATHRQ

Columns and labels:
[1] = target: Ankyrin B, endogenous in P14 mouse cortex (mouse (endogenous in P14 mouse cortex)) (UniProt Q8C8R3); experiment: co-IP; anti-AnkB antibody on Dynabeads (mIgG beads as control); precleared P14 mouse cortex lysate in IP buffer (150 mM NaCl, 0.32 M sucrose, 2 mM EDTA, 0.1% Triton X-100, 0.1% sodium deoxycholate, 0.1% SDS); 4 °C, 2 h; Western blot
[2] = target: AnkB p.Q879R-GFP (human) (UniProt Q01484); experiment: co-IP; anti-GFP antibody cross-linked to Protein G Dynabeads; lysates of HEK293T cells co-expressing Cav2.1 and wildtype or variant AnkB-GFP; 4 °C, 2 h; washed 3x in cell lysis buffer (25 mM Tris-HCl, 150 mM NaCl, 1 mM EDTA, 1% IGEPAL CA-630, 5% glycerol); Western blot
[3] = target: AnkB p.E1458G-GFP (human) (UniProt Q01484); experiment: as above
[4] = target: AnkB p.S646F-GFP (human) (UniProt Q01484); experiment: as above
[5] = target: wildtype Ankyrin B-GFP (220 kDa AnkB isoform) (human) (UniProt Q01484); experiment: as above

Substance	binding [1]	binding [2]	binding [3]	binding [4]	binding [5]
Cav2.1, endogenous in P14 mouse cortex (from UniProt P97445 1-2368)	binds	–	–	–	–
Cav2.1 (CACNA1A), pore-forming subunit of P/Q type voltage gated calcium channels, expressed from pcDNA3.1 (from UniProt P54282 1-2212)	–	binds	binds	binds	binds
